Data as given in PubChem BioAssay AID1671190 (National Center for Advancing Translational Sciences (NCATS), 2021).
About 6,100 (1.1%) of roughly 580,000 compounds were called active. The shares of active, inactive and inconclusive entries below differ from those in the screen. Calls follow the shape of the dose curve; as a rule, active = well fitted inhibition curve with a large enough effect; inconclusive = small, poorly fitted or top-dose-only effect, or another doubt; inactive = no such curve, though single readings can be large or run the other way. Potencies of inconclusive entries are doubtful fits and often do not repeat.

By UniProt entry, the sequences of proteins in these tests, tags left out.
UniProt P18054, whole entry, looked up: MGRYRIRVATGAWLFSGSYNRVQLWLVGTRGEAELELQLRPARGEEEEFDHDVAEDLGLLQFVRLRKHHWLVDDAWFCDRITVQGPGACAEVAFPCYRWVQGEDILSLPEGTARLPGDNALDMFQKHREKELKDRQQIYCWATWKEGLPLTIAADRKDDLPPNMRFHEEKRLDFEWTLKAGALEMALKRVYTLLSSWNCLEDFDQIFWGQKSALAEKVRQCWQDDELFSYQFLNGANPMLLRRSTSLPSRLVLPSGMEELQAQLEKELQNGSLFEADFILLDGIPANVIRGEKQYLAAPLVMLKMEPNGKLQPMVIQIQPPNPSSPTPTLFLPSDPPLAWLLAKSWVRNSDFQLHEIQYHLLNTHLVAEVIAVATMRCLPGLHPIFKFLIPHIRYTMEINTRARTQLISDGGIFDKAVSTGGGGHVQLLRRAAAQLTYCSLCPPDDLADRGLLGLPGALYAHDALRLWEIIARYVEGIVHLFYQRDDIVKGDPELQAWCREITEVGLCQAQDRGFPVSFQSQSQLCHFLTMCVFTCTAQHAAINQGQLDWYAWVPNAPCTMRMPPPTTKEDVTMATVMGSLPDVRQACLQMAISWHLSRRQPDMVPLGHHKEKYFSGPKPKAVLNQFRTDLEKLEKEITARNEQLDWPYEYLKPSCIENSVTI

target: Polyunsaturated fatty acid lipoxygenase ALOX12 (Homo sapiens) (UniProt P18054); assay: Primary qHTS assay for inhibitors of human arachidonate 12S-lipoxygenase (ALOX12): Round 2; details: purified 12hLO, xylenol orange hydroperoxide absorbance; activity change, negative = inhibition: at 108 µM (top of the series) unless noted
In short: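 Purified human 12hLO (150 nM final) in 25 mM Hepes, 0.01% Triton X-100, pH 7.0 was preincubated 15 min at room temperature with compound. Then 40 uM arachidonic acid was added, 30 min. Hydroperoxide was read by Fe-XO absorbance ratio 573/405 nm.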
% is scaled to controls: 0 for no effect and ±100 for the full control effect; potency is read from the fitted curve at half-maximal effect.

Structure (SMILES)	Potency	activity change, negative = inhibition
CCCCCn1c(COc2ccccc2Cl)n[nH]c1=S	active: 28.2 µM	–
OCCOC1CCCc2oc(-c3ccccc3)c(C#CC3(O)CCCCC3)c21 (centres undefined)	inconclusive: 63.1 µM [inhibitor, partial curve, poor fit]	–
O=C(Nc1ccc(Cl)cc1)c1csc(C(O)c2cccc(C(F)(F)F)c2)n1 (centres undefined)	active: 22.4 µM	–
CC(C)OCCCN1CN(S(=O)(=O)c2ccccc2)c2nc3ccccc3nc21	inconclusive: 4.47 µM [inhibitor, full curve, poor fit]	–
O=C(NC(=S)Nc1ccccc1C(=O)O)c1ccc2ccccc2c1	active: 25.1 µM	–
CC(O)[C@@H](C(=O)N1CCNCC1)n1cc(CCCCN)nn1 (some centres undefined)	inconclusive: 44.7 µM [inhibitor, partial curve, poor fit]	–
COc1ccc(/C=C2\S/C(=N/S(=O)(=O)c3cccs3)NC2=O)cc1	active: 39.8 µM	–
CC(C1CC1)N(Cc1ccccc1)C(=O)CSc1cc(C(N)=O)c2ccccc2n1 (centres undefined)	inconclusive: 44.7 µM [inhibitor, partial curve, poor fit]	–
CCN1C(=O)C2CC3(CCN(Cc4cccc(OC(F)(F)F)c4)CC3)CN2C1=O (centres undefined)	–	inactive: -1.36%
COc1cccc(/C=C(\C#N)c2nc3ccccc3[nH]2)c1	–	inactive: -21.2%
COc1ccc(C(=O)COc2cccc(NC(=O)c3ccco3)c2)cc1	inconclusive: 89.1 µM [inhibitor, partial curve, poor fit]	–
Nc1ccc(-c2nc3ccc([N+](=O)[O-])cc3[nH]2)cc1	inconclusive: 89.1 µM [inhibitor, partial curve, poor fit]	–
COc1ccccc1NC(=O)CC1C(=O)Nc2ccccc2N1C(=O)c1ccc(C)cc1 (centres undefined)	inconclusive: 44.7 µM [inhibitor, partial curve, poor fit]	–
CC(C)Nc1nc(C(=O)Nc2ccc(O)cc2)cs1	inconclusive: 0.708 µM [inhibitor, full curve, poor fit]	–
COc1ccccc1-c1ccc2c(c1)C(C)(Cc1ccc(Cl)c(Cl)c1)C(=O)N2 (centres undefined)	–	inactive: -24.7%
Cc1nc([C@H]2CCN(Cc3ccc(C(F)(F)F)cc3)C[C@H]2NC(=O)C2CC2)n[nH]1	–	inactive: 56.6%
O=C(CSc1nc2ccccc2o1)N(Cc1ccccc1)Cc1ccco1	inconclusive: 31.6 µM [inhibitor, partial curve, poor fit]	–
COc1ccc(NC(=O)CCS(=O)(=O)c2nc(-c3ccc4c(c3)OCO4)cc(C(F)(F)F)n2)cc1OC	–	inactive: -21.8%
C[C@]12C=CC(=O)C=C1[C@@H](F)C[C@@H]1[C@@H]2[C@@H](O)C[C@@]2(C)[C@H]1CC[C@]2(O)C(=O)CO	inactive	–

Reprinted from above for reference:
Structure (SMILES)	Potency	activity change, negative = inhibition
OCCOC1CCCc2oc(-c3ccccc3)c(C#CC3(O)CCCCC3)c21 (centres undefined)	inconclusive: 63.1 µM [inhibitor, partial curve, poor fit]	–
O=C(Nc1ccc(Cl)cc1)c1csc(C(O)c2cccc(C(F)(F)F)c2)n1 (centres undefined)	active: 22.4 µM	–
